Laboratory results: patent publication US10925923B2 (CAREGEN CO., LTD., priority 2016, dated 2021)

Test: general procedure: Fmoc solid-phase peptide synthesis; CTL resin
Settings: whole synthesis

Thr-Met-Arg-Asp (TMRD) gave a crude mass of 0.8 g and a crude yield (scale of the general procedure 700 mg resin) of 90.1%.
